Data on 22 targets can be found in the supplement of paper PMC10849652.

Sequences of proteins named here, by UniProt entry; tags and fusion partners are left off. A change or cut given only in a name is not applied to a line headed by its entry.
UniProt Q9P246, whole entry, looked up: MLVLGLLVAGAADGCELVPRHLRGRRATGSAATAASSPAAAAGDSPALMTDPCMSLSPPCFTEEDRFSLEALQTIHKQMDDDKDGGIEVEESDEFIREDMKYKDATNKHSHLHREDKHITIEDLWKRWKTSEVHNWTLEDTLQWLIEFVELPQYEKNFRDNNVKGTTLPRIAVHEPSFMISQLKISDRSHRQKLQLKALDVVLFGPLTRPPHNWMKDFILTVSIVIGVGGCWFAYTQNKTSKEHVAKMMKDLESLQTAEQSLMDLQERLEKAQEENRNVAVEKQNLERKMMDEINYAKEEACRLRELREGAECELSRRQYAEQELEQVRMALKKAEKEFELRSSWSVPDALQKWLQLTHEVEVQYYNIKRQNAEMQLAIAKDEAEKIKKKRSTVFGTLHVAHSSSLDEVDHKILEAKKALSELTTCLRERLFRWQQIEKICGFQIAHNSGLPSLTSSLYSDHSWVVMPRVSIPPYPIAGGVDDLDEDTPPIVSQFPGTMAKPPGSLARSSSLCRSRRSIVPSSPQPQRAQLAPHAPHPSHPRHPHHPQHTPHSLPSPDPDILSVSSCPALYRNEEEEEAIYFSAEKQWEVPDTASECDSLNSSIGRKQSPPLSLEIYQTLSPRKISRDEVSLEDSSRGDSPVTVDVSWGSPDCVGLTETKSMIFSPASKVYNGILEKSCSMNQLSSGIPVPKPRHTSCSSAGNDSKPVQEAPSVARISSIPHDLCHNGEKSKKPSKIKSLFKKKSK
UniProt Q08AE8, whole entry, looked up: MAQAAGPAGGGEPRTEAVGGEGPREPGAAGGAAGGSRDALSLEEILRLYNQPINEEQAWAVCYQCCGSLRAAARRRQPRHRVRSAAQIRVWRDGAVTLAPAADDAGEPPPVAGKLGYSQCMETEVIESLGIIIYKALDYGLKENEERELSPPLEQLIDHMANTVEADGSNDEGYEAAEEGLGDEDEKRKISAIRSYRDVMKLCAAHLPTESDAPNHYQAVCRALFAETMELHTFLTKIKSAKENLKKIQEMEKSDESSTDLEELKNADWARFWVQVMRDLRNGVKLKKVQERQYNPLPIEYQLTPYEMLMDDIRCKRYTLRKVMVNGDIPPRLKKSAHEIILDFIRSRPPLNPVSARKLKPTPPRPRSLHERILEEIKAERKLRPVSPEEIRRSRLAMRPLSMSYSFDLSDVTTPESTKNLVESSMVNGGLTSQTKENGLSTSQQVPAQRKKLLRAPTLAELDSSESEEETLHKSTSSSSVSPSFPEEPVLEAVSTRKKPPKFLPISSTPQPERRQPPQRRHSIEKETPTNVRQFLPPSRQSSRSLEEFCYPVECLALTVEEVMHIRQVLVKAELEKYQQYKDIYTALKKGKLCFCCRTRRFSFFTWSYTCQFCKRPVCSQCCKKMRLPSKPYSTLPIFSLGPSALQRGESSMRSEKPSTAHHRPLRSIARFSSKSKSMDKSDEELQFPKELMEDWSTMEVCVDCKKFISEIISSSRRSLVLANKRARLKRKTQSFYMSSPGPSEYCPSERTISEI
UniProt P61647: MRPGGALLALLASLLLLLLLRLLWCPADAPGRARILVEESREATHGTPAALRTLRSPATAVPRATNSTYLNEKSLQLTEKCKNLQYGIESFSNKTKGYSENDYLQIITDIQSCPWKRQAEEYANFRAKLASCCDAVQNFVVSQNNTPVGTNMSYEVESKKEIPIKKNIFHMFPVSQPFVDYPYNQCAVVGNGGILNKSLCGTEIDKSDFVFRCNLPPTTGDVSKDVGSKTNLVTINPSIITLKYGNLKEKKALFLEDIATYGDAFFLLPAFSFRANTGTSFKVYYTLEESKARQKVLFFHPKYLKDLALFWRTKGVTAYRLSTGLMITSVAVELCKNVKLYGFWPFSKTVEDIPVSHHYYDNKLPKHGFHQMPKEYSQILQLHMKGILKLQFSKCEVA
UniProt Q56A73: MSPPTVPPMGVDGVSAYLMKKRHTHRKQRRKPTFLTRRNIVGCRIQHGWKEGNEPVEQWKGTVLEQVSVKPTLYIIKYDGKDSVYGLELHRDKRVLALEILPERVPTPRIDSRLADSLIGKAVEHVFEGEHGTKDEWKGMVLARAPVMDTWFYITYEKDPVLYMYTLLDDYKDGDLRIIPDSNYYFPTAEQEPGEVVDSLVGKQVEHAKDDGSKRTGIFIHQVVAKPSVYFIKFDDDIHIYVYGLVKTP
UniProt P22528: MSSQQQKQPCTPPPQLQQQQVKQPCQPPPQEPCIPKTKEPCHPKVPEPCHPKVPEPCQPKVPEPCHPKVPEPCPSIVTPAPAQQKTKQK
UniProt Q11201: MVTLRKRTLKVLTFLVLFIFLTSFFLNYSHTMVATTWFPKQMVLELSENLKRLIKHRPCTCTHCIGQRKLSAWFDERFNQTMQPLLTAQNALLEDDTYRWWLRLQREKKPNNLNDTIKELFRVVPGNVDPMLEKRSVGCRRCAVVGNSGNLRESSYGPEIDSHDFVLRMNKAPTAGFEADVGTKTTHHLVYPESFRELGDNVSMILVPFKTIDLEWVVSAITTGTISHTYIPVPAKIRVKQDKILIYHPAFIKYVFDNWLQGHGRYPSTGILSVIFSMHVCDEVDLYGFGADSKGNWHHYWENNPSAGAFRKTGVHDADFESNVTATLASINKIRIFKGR
UniProt Q9NUQ6: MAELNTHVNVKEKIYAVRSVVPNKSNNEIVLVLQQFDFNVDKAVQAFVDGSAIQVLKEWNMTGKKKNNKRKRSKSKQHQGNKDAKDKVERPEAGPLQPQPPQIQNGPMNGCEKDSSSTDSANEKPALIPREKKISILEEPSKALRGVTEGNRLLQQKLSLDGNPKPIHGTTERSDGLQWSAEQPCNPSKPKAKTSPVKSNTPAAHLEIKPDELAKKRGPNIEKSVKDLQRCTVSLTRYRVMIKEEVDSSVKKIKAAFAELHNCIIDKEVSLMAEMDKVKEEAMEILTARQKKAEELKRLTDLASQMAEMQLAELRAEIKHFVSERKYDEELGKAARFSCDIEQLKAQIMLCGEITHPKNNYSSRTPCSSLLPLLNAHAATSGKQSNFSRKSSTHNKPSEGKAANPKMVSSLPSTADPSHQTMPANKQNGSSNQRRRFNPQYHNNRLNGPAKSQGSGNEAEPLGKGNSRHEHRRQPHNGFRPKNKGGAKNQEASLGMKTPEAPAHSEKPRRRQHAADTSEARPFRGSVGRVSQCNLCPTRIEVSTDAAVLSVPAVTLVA
UniProt P43308: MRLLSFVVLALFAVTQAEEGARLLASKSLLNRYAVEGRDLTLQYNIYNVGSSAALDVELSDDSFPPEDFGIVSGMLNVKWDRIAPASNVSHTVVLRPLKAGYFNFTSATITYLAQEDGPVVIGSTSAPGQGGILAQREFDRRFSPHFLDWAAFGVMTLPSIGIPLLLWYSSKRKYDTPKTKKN
UniProt O75716, whole entry, looked up: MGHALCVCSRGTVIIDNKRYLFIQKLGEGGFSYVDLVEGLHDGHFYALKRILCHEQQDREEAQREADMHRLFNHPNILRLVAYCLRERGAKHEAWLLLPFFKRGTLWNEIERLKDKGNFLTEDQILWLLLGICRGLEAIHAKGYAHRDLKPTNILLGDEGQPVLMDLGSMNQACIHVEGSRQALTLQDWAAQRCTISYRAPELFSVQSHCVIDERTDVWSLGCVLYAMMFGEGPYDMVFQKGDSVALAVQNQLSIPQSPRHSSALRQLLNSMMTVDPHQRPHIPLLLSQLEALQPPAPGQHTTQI
UniProt Q9Y6N5: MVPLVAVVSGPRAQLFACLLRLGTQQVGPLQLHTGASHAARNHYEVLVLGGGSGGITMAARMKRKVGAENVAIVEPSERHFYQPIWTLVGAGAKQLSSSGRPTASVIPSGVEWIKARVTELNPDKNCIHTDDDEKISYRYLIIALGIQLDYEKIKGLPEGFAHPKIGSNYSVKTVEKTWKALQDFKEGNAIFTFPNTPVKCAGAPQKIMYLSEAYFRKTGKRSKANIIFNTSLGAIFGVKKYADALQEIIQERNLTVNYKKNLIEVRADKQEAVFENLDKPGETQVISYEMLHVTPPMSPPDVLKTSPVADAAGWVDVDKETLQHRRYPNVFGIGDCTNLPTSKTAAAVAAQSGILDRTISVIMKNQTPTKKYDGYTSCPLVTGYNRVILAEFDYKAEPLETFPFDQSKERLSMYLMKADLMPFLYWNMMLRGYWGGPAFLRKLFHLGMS
UniProt O75177, whole entry, looked up: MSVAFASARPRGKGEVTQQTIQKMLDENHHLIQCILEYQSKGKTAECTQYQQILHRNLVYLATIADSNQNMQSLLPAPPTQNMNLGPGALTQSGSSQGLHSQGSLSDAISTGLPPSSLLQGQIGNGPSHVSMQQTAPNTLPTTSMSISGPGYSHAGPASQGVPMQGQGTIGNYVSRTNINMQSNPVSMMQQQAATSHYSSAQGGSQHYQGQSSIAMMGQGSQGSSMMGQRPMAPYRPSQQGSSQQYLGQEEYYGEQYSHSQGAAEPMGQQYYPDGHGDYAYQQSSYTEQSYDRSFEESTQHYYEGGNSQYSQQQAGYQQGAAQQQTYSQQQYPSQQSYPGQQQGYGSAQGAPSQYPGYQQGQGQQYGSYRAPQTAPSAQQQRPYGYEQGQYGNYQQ
UniProt Q8TCT6: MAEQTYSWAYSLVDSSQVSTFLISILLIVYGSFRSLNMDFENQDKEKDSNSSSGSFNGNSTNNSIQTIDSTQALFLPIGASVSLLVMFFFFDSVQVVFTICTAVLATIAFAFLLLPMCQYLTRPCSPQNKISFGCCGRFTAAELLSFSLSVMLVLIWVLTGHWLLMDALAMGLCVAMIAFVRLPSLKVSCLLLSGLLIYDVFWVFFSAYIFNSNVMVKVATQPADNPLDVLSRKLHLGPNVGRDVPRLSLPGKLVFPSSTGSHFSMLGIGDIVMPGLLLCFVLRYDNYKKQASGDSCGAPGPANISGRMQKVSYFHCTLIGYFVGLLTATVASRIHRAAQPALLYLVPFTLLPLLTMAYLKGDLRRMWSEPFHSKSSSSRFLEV
UniProt Q8N0Z3: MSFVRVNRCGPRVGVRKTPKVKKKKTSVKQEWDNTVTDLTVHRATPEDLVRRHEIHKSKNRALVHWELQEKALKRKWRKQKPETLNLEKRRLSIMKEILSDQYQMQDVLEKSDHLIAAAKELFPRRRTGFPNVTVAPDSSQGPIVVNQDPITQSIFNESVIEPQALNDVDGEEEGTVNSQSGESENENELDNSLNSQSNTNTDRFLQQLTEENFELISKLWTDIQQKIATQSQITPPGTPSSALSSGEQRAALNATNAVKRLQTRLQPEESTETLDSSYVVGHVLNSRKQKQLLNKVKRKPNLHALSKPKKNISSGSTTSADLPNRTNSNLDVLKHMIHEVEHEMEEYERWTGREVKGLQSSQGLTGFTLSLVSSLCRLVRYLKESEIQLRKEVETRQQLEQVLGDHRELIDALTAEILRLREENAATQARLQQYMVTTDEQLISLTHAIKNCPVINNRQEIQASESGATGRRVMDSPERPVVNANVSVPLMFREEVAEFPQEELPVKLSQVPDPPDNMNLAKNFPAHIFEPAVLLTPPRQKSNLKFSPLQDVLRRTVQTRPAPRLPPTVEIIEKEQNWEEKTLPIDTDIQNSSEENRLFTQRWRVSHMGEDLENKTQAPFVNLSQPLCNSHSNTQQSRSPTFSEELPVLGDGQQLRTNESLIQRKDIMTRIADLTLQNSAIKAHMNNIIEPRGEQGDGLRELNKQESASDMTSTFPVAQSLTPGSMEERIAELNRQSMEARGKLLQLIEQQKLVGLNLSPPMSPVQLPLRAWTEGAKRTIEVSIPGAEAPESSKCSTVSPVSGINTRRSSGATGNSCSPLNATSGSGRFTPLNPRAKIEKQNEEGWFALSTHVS
UniProt Q11206: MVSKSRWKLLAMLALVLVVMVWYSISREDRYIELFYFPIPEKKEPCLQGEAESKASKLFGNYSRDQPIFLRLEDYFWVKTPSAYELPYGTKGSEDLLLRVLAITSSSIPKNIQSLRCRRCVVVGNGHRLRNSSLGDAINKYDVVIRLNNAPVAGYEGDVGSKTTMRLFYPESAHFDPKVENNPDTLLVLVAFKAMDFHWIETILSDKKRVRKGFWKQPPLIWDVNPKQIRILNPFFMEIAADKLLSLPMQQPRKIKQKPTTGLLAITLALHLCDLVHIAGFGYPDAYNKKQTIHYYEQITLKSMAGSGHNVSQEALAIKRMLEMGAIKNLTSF
UniProt P49675, whole entry, looked up: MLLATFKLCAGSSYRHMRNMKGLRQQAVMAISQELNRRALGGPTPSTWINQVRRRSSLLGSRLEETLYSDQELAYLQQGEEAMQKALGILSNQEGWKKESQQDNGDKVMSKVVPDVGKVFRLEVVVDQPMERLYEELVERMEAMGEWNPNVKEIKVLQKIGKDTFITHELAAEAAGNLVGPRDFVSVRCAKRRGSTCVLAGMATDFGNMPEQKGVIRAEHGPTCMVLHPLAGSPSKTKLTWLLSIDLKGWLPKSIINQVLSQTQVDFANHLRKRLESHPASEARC
UniProt P49842: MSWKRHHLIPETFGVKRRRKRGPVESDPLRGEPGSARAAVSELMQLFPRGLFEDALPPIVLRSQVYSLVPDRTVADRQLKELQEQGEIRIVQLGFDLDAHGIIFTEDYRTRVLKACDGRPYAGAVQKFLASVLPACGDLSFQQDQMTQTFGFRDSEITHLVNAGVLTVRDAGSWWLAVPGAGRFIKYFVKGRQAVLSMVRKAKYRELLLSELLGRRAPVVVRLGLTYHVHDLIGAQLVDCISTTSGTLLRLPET

Common to all, as to assay: log2 fold change, soluble protein after heating vs DMSO (PISA); higher = thermal stabilisation; K562 cells, 10 uM, 30 min; active = over 0.2 and 3.5 SD of the protein, either way, in both replicates (recomputed)
Compound in assay [1]: CC1=CC=C(C=C1)SC2=C3C=C(SC3=CN=C2)C(=O)N
In outline:
(§1)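 K562 cells at 2×10^6 cells/mL were treated with 10 μM compound for 30 min. Aliquots were heated for 3 min across 48°C-58°C, pooled, and extracted in PBS with 0.5% NP-40 at 4°C; soluble protein was the supernatant after 21,000xg for 90 min. Soluble protein was quantified by TMTpro 16plex LC-MS/MS with channel sums equalised, and reported as log2 fold change in thermal stability against DMSO controls, with values from duplicates.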

Compound in a further assay: CCCCN(Cc1ccc(C(=O)NO)cc1)C(=O)Nc1ccccc1 [Nexturastat A]
In outline: as §1

Compound in a further assay: CCCS(=O)(=O)Nc1ccc(F)c(C(=O)c2c[nH]c3ncc(-c4ccc(Cl)cc4)cc23)c1F [vemurafenib]
In outline: as §1

Compound in assay [2]: CCCS(=O)(=O)Nc1ccc(F)c(C(=O)c2c[nH]c3ncc(Cl)cc23)c1F
In outline: as §1

Compound in a further assay: CCN(CC)Cc1ccc2cc(COC(=O)Nc3ccc(C(=O)NO)cc3)ccc2c1 [givinostat]
In outline:
as §1

Compound in assay [3]: CC[C@@H]1C(=O)N(C)c2cnc(Nc3ccc(C(=O)NC4CCN(C)CC4)cc3OC)nc2N1C1CCCC1
In outline:
as §1

Compound in another assay: CC[C@@H]1C(=O)N(C)c2cnc(Nc3ccc(C(=O)N[C@H]4CC[C@H](N5CCN(CC6CC6)CC5)CC4)cc3OC)nc2N1C(C)C [volasertib]
In outline: as §1

Compound in assay [4]: CC[C@H](C)N1C=C(C2=C(C=C(C=C21)C3=CN=C(C=C3)N4CCNCC4)C(=O)NCC5=C(C=C(NC5=O)C)C)C
In outline:
as §1

Compound in the next assay: CC[C@H](C)[C@@H](C(=O)N[C@@H]([C@@H](C)O)C(=O)N[C@@H](CC(C)C)C(=O)[C@]1(CO1)C)NC(=O)[C@H]([C@@H](C)CC)N(C)C(=O)C [epoxomicin]
In outline: as §1

Compound in assay [5]: CCn1c(C(=O)N(C2CC2)C2CC2)cc2c3c(ncn3C)c(Nc3cc(C)n(C)n3)nc21
In outline:
as §1

Compound in assay [6]: CN(C)CC(=O)Nc1ccc2[nH]c(=O)c3ccccc3c2c1
In outline: as §1

Compound in assay [7]: CC1=C(C=C(C=C1)NC(=O)C2=CC(=CC=C2)N(C)C)NC(=O)C3=CC=C(C=C3)O
In outline:
as §1

Compound in assay [8]: CC1=NC(=CC=C1)C2=C(N=C(N2)C(C)(C)C)C3=CC4=NC=CN=C4C=C3
In outline: as §1

Compound in assay [9]: CCCc1cc(C)[nH]c(=O)c1CNC(=O)c1cc(-c2ccnc(N3CCN(C)CC3)c2)cc2c1cnn2C(C)C
In outline:
as §1

Compound in the next assay: CCN(CCCOc1ccc2c(Nc3cc(CC(=O)Nc4cccc(F)c4)[nH]n3)ncnc2c1)CCOP(=O)(O)O [barasertib]
In outline: as §1

Compound in assay [10]: CCn1cc(-c2ccnc3[nH]c(-c4cccc(CN(C)C)c4)cc23)c(-c2ccc(NC(=O)N(C)C)cc2)n1
In outline:
as §1

Compound in assay [11]: CN1CCC(CNc2ccc3ncc(-c4cccc(OC(F)(F)F)c4)n3n2)CC1
In outline: as §1

Compound in assay [12]: CC1=C(C=C(C=C1)NC(=O)C2=CC(=CC=C2)C(C)(C)C#N)NC3=CC4=C(C=C3)N=CN(C4=O)C
In outline:
as §1

Compound in a further assay: CN(CCOC1=CC=C(C=C1)C[C@H]2C(=O)NC(=O)S2)C3=CC=CC=N3 (racemic) [rosiglitazone]
In outline:
as §1

Compound in assay [13]: CN1C2=C(C3=C1C(=O)N(N=C3)CC4=CC(=CC=C4)N)SC(=C2)S(=O)C
In outline:
as §1

The list shows a part of the results.

With STIM2 isoform 2 (UniProt Q9P246), the log2 fold change is inactive: 0.001 in [1]; inactive: -0.029 in the assay with Nexturastat A; inactive: 0.1 with vemurafenib; inactive: -0.038 in assay [2]; inactive: 0.034 with givinostat; inactive: -0.114 in assay [3]. Moreover, the log2 fold change was inactive: -0.426 with volasertib; inactive: -0.044 in assay [4]; inactive: 0.092 with epoxomicin; inactive: 0.044 in assay [5]; inactive: 0 in [6].
As for SPIRE1 (UniProt Q08AE8), the log2 fold change is inactive: 0.013 in assay [7]; inactive: -0.025 in [8]; inactive: 0.31 in the assay with Nexturastat A; inactive: -0.011 with vemurafenib; inactive: -0.062 in assay [9]; inactive: 0.185 with givinostat. For the same target, the log2 fold change was inactive: -0.014 in the assay with barasertib; inactive: 0.125 in assay [3]; inactive: -0.181 in assay [4]; inactive: -0.238 with epoxomicin; inactive: -0.116 in [10]; inactive: -0.056 in assay [6]. In addition, in [11], the log2 fold change is inactive: -0.026.
As for ST8SIA6 (UniProt P61647), the log2 fold change in assay [12] is inactive: -0.125; in assay [8] it was inactive: -0.354; with vemurafenib it was inactive: -0.266; with barasertib, inactive: 0.026; in [10] it was inactive: 0.028; in assay [6], inactive: -0.073. Besides, the log2 fold change in the assay with rosiglitazone was inactive: 0.029; in assay [11], inactive: 0.185.
Turning to STIP1 (UniProt H0YGI8), the log2 fold change in assay [10] was inactive: -0.108; in [11] it was inactive: -0.062.
Take SPIN4 (UniProt Q56A73): the log2 fold change in [8] is inactive: -0.601; with givinostat, inactive: -0.245.
With SPRR1B (UniProt P22528), the log2 fold change in [9] was inactive: 0.07; in assay [3], inactive: -0.124.
Take ST3GAL1 (UniProt Q11201): the log2 fold change is inactive: -0.13 in assay [1]; inactive: -0.051 in the assay with Nexturastat A; inactive: 0.007 in assay [2]; inactive: -0.097 in the assay with volasertib; inactive: -0.093 with epoxomicin; inactive: -0.077 in assay [13].
SPEN (UniProt Q96T58): the log2 fold change in assay [7] is inactive: -0.134; in assay [1] it was inactive: -0.056; in the assay with Nexturastat A, inactive: 0.089; with vemurafenib, inactive: 0.005; in assay [2], inactive: -0.071; in assay [9] it was inactive: 0.06. Moreover, the log2 fold change with givinostat is inactive: 0.076; in the assay with barasertib, inactive: -0.024; in [3] it was inactive: -0.065; with volasertib it was inactive: 0.051; in assay [4] it was inactive: -0.013; with epoxomicin it was inactive: 0.073. The log2 fold change in [5] is inactive: -0.023; in assay [10], inactive: 0.019; in assay [6], inactive: -0.043; with rosiglitazone, inactive: 0.033; in assay [13], inactive: -0.18; in [11], inactive: 0.042.
Consider SSX1 (UniProt Q16384), for which the log2 fold change in [1] was inactive: -0.007; with Nexturastat A it was inactive: 0.254; in [2], inactive: -0.007; with barasertib it was inactive: 0.032; with volasertib, inactive: -0.116; with epoxomicin, inactive: -0.031. Besides, the log2 fold change with rosiglitazone was inactive: 0.274.
For SPATS2L isoform 3 (UniProt Q9NUQ6), the log2 fold change was inactive: -0.04 in assay [12], inactive: 0.545 in the assay with Nexturastat A, inactive: -0.401 in the assay with epoxomicin and inactive: 0.335 in assay [13].
Turning to SSR2 (UniProt P43308), the log2 fold change in [9] was inactive: -0.106; in assay [4] it was inactive: -0.272.
Regarding STK16 (UniProt O75716), the log2 fold change in [8] is inactive: 0.141; in the assay with Nexturastat A, inactive: -0.032; with givinostat, inactive: 0.033; with epoxomicin it was inactive: 0.025; in assay [5], inactive: -0.142.
In the case of SQOR (UniProt Q9Y6N5), the log2 fold change in assay [12] is inactive: -0.099; with Nexturastat A, inactive: 0.085; with vemurafenib, inactive: -0.163; with givinostat, inactive: 0.111; in the assay with epoxomicin, inactive: -0.027; in [5] it was inactive: -0.066. Also, the log2 fold change in [10] is inactive: 0.055; in [6] it was inactive: 0.048; in [13], inactive: -0.01; in [11] it was inactive: 0.034.
Regarding SS18L1 (UniProt O75177), the figures for the log2 fold change (in [1]; in assay [2]; with volasertib) were inactive: -0.172, inactive: -0.016 and inactive: 0.093, respectively.
With SPPL3 (UniProt Q8TCT6), the log2 fold change in [9] is inactive: 0.018; with givinostat it was inactive: 0.014; in assay [5], inactive: -0.097.
SPICE1 (UniProt Q8N0Z3): the log2 fold change in the assay with barasertib is inactive: 0.074; in [4], inactive: -0.286; in assay [10], inactive: 0.038; with rosiglitazone it was inactive: -0.322; in assay [11], inactive: -0.578.
With SREBF1 isoform 4 (UniProt P36956), the log2 fold change was inactive: 0.035 in [8]; inactive: 0.063 in the assay with Nexturastat A; active: -0.932 in assay [9]; inactive: 0.051 with givinostat; inactive: -0.071 in the assay with barasertib; inactive: -0.511 in [3]. Moreover, the results for the log2 fold change (with epoxomicin; in [13]) were inactive: -0.035 and inactive: 0.198, respectively.
Take ST3GAL4 isoform 4 (UniProt Q11206): the log2 fold change was inactive: -0.004 in [12]; inactive: -0.053 with Nexturastat A; inactive: 0.094 in the assay with givinostat; inactive: 0.037 with barasertib; inactive: -0.083 in assay [4]; inactive: -0.052 in the assay with epoxomicin. Also, the log2 fold change in assay [5] was inactive: -0.004; with rosiglitazone, inactive: -0.046.
As to SRCIN1 (UniProt Q9C0H9), the log2 fold change in assay [7] is inactive: 0.035; with vemurafenib, inactive: 0.107; with givinostat it was inactive: -0.104; in the assay with barasertib it was inactive: -0.13; in assay [5], inactive: -0.009; in [10], inactive: -0.003. In addition, the figures for the log2 fold change (in [6]; with rosiglitazone; in assay [11]) were inactive: -0.017, inactive: -0.332 and inactive: -0.265, respectively.
With STAR (UniProt P49675), the log2 fold change in [7] was inactive: 0.041; in the assay with vemurafenib it was inactive: -0.095; in assay [9], inactive: -0.299; in [6] it was inactive: 0.144.
For STK19 (UniProt P49842), the log2 fold change in assay [7] is inactive: 0.236.
As for SRGAP1 (UniProt Q7Z6B7), the log2 fold change was inactive: 0.038 in [7]; inactive: 0.064 in assay [1]; inactive: -0.003 in assay [8]; inactive: 0.074 with Nexturastat A; inactive: 0.119 with vemurafenib; inactive: 0.017 in assay [2]. Further, the log2 fold change was inactive: 0.128 in assay [9]; inactive: 0.047 with barasertib; inactive: -0.219 in the assay with volasertib; inactive: 0.087 in assay [4]; inactive: -0.026 with epoxomicin; inactive: -0.145 in assay [10]. The results for the log2 fold change (in assay [6]; in the assay with rosiglitazone; in assay [11]) were inactive: -0.143, inactive: -0.011 and inactive: 0.229, respectively.
